Assay results as given in PMC2442654.
These are yes or no findings as the source states them, for the method shown.

Target: recombinant mouse full-length prion protein, MoPrP (23-231), unexposed (mouse) (UniProt P04925)
Experiment: Rayleigh light scattering (photo-aggregation); both purified

“recombinant mouse full-length prion protein, MoPrP (23-231), unexposed (from UniProt P04925 23-231)” was tested, and the binding was “no binding (condition: in 3 M urea and 1 M GdmCl)”.
